Assay results reported in article doi:10.1101/2024.05.17.594765.
These are yes or no findings as the source states them, for the method shown. Some entries that bind do so weakly or less than the wild type. Sequences can lack the tags named with a protein.

Biological target: T1, C-terminally Halo-tagged four-and-a-half LIM domains 3 (FHL3-Halo) (human), Q13643
T1 chain: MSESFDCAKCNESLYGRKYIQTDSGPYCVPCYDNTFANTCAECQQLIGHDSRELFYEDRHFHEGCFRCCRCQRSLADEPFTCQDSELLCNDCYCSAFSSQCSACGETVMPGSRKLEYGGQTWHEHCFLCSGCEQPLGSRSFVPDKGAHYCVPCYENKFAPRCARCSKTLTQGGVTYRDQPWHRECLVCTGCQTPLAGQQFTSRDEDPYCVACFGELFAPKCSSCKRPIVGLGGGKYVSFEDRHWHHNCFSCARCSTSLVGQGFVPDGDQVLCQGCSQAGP
Experiment: TIRF microscopy, force reconstitution assay with purified proteins; myosin Va and myosin VI (or either alone) immobilised on a PEG-coated coverslip, fluorescent F-actin added, then 250 nM Halo-tagged LIM protein in MBOS (20 mM MOPS pH 7.4, 5 mM MgCl2, 0.1 mM EGTA, 50 mM KCl) + 1 mM ATP; room temperature; myosin force generation; both purified
Details: remark: other sources report otherwise

B1: C-terminally Halo-tagged four-and-a-half LIM domains 3 (FHL3-Halo), Q13643 1-280 (protein)
chain: T1 chain
modifications: here or on the partner: Janelia Fluor 646 Halo-ligand conjugated to the Halo tag; Janelia Fluor 646 Halo-ligand conjugated to the Halo tag
With B1 the binding was “binds”.
